Test results as given in paper PMC7055043.
No constants are given. Whether binding was seen depends on the method and setting. Binding seen in cells or lysates may run through a third protein. Some results given as binding are weak or reduced against the parent protein; the word gives no strength.

Experiments:
[1] = target: myc-ΔCBD-ΔCT (Chi3L1 deleted of both CBD and CT regions) (UniProt P36222); test: co-IP; A549 lung cancer cells transfected with myc-tagged Chi3L1 constructs; lysates immunoprecipitated with anti-Myc antibody and Protein A agarose, Western blot with anti-p53
[2] = target: Myc-tagged full-length Chi3L1 (Chitinase 3-like-1) (UniProt P36222); test: as above
[3] = target: endogenous Chi3L1 (human lung tissue) (human (endogenous in lung tissue)) (UniProt P36222); test: co-IP; lysates of human lung cancer patient tissues and normal lung tissues immunoprecipitated with anti-Chi3L1 (or control IgG) and Protein A agarose, Western blot with anti-Chi3L1 and anti-p53

Substance | binding [1] | binding [2] | binding [3]
endogenous p53 (A549 lung cancer cells) (from UniProt P04637 1-393) | no binding | binds | 
endogenous p53 (human lung tissue) (from UniProt P04637 1-393) |  |  | binds
